One substance from PMC6531468 can be followed below.

By UniProt entry, the sequences of proteins in these tests, tags left out. Where a name states a change or a piece, a line headed by the entry shows the natural chain unless it says otherwise. Chains listed by the source or under a name are the forms on record and can include a tag or linker.
IMP3 KH1–Δ2 tandem domain (Lys192–Ile355, GKEG of KH2 replaced by GDDG) (O00425, form named): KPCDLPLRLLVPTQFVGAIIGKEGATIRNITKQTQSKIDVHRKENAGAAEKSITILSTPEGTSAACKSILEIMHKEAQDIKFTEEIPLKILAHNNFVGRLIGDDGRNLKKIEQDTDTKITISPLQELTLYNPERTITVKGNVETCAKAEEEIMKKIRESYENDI

Results are given in words; binding and its absence hold for the method and conditions named.

This assay concerns the target IMP3 KH1–Δ2 tandem domain (Lys192–Ile355, GKEG of KH2 replaced by GDDG) (human) (UniProt O00425). Description: SAXS; in solution, in-house or ESRF BM29; sample concentrations 1–7 mg/ml (RRM1–2 at 1 mg/ml; KH1–Δ2 at 4 mg/ml, compared with a Crysol curve from the crystal structure); both purified.

Turning to “IMP3 KH1–Δ2 tandem domain (Lys192–Ile355, GKEG of KH2 replaced by GDDG) (from UniProt O00425 192-355) (domain or fragment)”, the binding entry is recorded as “no binding (tested: 4 mg/ml)”.
